Reference: patent publication US20240115672A1, “TREATMENT OF AN IOP CONDITION” (THE RESEARCH FOUNDATION FOR THE STATE UNIVERSITY OF NEW YORK, priority 2021, published 2024)
At least one structure is not confirmed: it was looked up by name or label, or the drawing left a doubt.

System: Tg-MYOCY437H mice
Assay: Outflow facility in Tg-MYOCY437H mouse eyes (Example 19)
Format: in vivo
Settings: p>0.05 T-test

**Q.** `CC1(C)O[C@@H]2C[C@H]3[C@@H]4CCC5=CC(=O)C=C[C@]5(C)[C@@]4(F)[C@@H](O)C[C@]3(C)[C@]2(C(=O)CO)O1` [TA, triamcinolone acetonide] was tested. Which “outflow facility, TA versus PBS treated groups” value did it give?
**A.** The value was “not significantly different”.
